Results are given in words; binding and its absence hold for the method and conditions named. Binding seen in cells or lysates may run through a third protein. A result given as binding can be weak or reduced; the word gives no strength.
Columns and labels:
[1] = target: C-terminal 2×Flag-tagged placental alkaline phosphatase (ALPP-2×Flag) (human) (UniProt P05187); assay: co-IP; Flag-ALPP 293T cells, Flag-ALPP as bait; silver and Coomassie staining
[2] = target: C-terminal 2×Flag-tagged placental alkaline phosphatase (ALPP-2×Flag) (human) (UniProt P05187); assay: co-IP; U-251 MG cells stably expressing Flag-tagged ALPP, mock infected or infected with ZIKV for 24 h; lysate on anti-Flag M2 affinity gel overnight at 4°C, five washes, eluted with 3×Flag peptide; immunoblot
[3] = target: C-terminal 2×Flag-tagged placental alkaline phosphatase (ALPP-2×Flag) (human) (UniProt P05187); assay: co-IP; Flag-ALPP JEG-3 cells and Flag control cells, Flag-ALPP as bait; immunoblot with anti-Flag or anti-BIP

The chains behind the UniProt entries cited, without tags or fusion partners. Where a name states a change or a piece, a line headed by the entry shows the natural chain unless it says otherwise. Residues count along the entry.
UniProt P05187: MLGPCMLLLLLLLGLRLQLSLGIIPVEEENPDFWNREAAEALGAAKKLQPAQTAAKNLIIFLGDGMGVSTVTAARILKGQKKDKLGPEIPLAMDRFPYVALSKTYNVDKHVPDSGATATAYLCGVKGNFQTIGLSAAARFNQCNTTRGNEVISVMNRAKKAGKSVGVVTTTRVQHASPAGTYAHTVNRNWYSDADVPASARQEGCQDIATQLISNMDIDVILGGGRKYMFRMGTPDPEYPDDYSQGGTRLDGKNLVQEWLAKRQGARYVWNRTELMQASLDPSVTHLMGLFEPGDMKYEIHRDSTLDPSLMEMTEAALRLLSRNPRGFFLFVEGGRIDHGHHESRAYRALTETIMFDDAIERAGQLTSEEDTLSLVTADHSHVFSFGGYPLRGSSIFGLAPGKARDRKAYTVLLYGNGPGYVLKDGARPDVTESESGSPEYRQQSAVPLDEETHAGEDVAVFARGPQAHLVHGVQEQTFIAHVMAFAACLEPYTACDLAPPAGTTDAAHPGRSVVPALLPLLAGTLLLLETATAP
UniProt P11021, residues 19-654: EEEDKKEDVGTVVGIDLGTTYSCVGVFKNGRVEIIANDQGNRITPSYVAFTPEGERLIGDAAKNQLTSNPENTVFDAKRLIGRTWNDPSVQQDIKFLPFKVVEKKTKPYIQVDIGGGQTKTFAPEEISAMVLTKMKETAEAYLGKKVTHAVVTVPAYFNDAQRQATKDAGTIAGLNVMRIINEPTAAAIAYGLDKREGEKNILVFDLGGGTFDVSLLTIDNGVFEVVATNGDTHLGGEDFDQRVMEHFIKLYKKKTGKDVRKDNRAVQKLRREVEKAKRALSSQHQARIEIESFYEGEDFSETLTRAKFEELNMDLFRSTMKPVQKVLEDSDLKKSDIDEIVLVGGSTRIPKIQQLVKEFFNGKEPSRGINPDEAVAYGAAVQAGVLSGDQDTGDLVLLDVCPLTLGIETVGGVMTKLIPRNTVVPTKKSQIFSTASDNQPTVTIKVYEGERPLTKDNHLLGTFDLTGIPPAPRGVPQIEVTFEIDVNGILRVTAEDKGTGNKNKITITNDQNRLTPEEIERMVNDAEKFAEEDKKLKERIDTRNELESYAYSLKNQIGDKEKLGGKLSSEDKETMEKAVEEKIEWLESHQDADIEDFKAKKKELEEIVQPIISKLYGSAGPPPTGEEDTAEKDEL

Measured: binding

BIP (GRP78), endogenous (from UniProt P11021 19-654)
binds: all assays above

Reference: PMC7492734
